Changes are numbered by the printed parent chain. Results are given in words; binding and its absence hold for the method and conditions named. Some binding calls cover weakened binding; strength is not graded here.
B1: SEQ ID NO 450 (designed binder)
chain: NVSPPRRARVTDATETTITITWRVSFQVDAVPANGQTPIQRTIKRGVSSYTITGLQPGTDYKIYLYTLNDNARSSPVVIDAST
B2: SEQ ID NO 451 (designed binder)
chain: NVSPPRRARVTDATETTITIRWGALGFQVDAVPANGQTPIQRTIKRSVTTYTITGLQPGTDYKIYLYTLNDNARSSPVVIDAST
B3: 1637116_AXLB02 (designed binder)
chain: B2 chain with G23P, A24V, L25P, K45H, S47A, T50V
B4: SEQ ID NO 453 (designed binder)
chain: NVSPPRRARVTDATETTITIRWGQVISFQVDAVPANGQTPIQRTIKSDIHTYTITGLQPGTDYKIYLYTLNDNARSSPVVIDAST
B5: 1637116_AXLB05 (designed binder)
chain: B2 chain with G23K, A24V, L25D, K45H, S47A, T49N, T50V
B6: SEQ ID NO 455 (designed binder)
chain: B2 chain with G23K, L25A, S47N, V48A, T49N, T50I
B7: SEQ ID NO 456 (designed binder)
chain: NVSPPRRARVTDATETTITIPWTLGVEASGVITGFQVDAVPANGQTPIQRTIKPDVRSYTITGLQPGTDYKIYLYTLYGGGKTSSPVVIDAST
B8: SEQ ID NO 457 (designed binder)
chain: NVSPPRRARVTDATETTITIRWALPQSAFDRFQVDAVPANGQTPIQRTITTAIRTYTITGLQPGTDYKIYLYTLNDNARSSPVVIDAST
B9: SEQ ID NO 458 (designed binder)
chain: B2 chain with G23P, A24V, S47T, T49S, T50V
B10: SEQ ID NO 459 (designed binder)
chain: B2 chain with G23K, A24V, L25P, K45H, S47G, V48I, T49R, T50S
B11: SEQ ID NO 460 (designed binder)
chain: B2 chain with G23K, A24G, L25A, G26D, K45T, S47G, T49R
B12: SEQ ID NO 461 (designed binder)
chain: B2 chain with G23S, A24L, S47N, T49N, T50A
B13: SEQ ID NO 462 (designed binder)
chain: B2 chain with G23K, A24G, L25D, G26R, K45T, R46S, S47G, T50G
B14: SEQ ID NO 463 (designed binder)
chain: B2 chain with G23S, A24I, L25T, K45N, S47G, T49R, T50S
B15: SEQ ID NO 464 (designed binder)
chain: B2 chain with G23A, A24V, L25P, K45H, S47G, T49S, T50V
B16: SEQ ID NO 465 (designed binder)
chain: NVSPPRRARVTDATETTITISWRTKTETITGFQVDAVPANGQTPIQRTIATGARVYTITGLQPGTDYKIYLYTLTGYGVGAVASSPVVIDAST
B17: SEQ ID NO 467 (designed binder)
chain: NVSPPRRARVTDATETTITITWTGSRGKFVGFQVDAVPANGQTPIQRTIKPDVRSYTITGLQPGTDYKIYLYTLYGYVSGSSPVVIDAST
B18: SEQ ID NO 468 (designed binder)
chain: NVSPPRRACVTDATETTITISWRLAESKVVGFQVDAVPANGQTPIQRTIHTDTSSYTITGLQPGTDYKIYLYTLNTVGKSAVASSPVVIDAST
B19: SEQ ID NO 469 (designed binder)
chain: NVSPPRRARVTDATETTITIRWELPRGEVTGFQVDAVPANGQTPIQRTIKGAKRGYTITGLQPGTDYKIYLYTLNDNARSSPVVIDAST
B20: SEQ ID NO 470 (designed binder)
chain: B16 chain with G52A, A53I, A81E, V82S, A83R
B21: SEQ ID NO 471 (designed binder)
chain: B1 chain with T21R, R23S, V24N, S25G, G46T, V47A, S48P
B22: SEQ ID NO 472 (designed binder)
chain: NVSPPRRARVTDATETTITITWGLAESKVVGFQVDAVPANGQTPIQRTIKPDVRSYTITGLQPGTDYKIYLYTLNGNVGGLTVVIDAST
B23: SEQ ID NO 473 (designed binder)
chain: B16 chain with A50N, T51R, G52N, R54H, V55A, A81T
B24: SEQ ID NO 474 (designed binder)
chain: NVSPPRRARVTDATETTITITWARSQSTVVGFQVDAVPANGQTPIQRTIKPDVRSYTITGLQPGTDYKIYLYTLTVVGGSAYGSSPVVIDAST
B25: SEQ ID NO 476 (designed binder)
chain: NVSPPRRARVTDATETTITISWRTKTETITGLQVDAVPANGQTPIQRTIATNENSYTITGLQPGTDYKIYLYTLNGRGATSSPVVIDAST
B26: SEQ ID NO 477 (designed binder)
chain: B24 chain with T21S, A23K, Q26E, T28Q, T75N, G79R
B27: SEQ ID NO 478 (designed binder)
chain: B16 chain with A53I, A81T, V82L, A83S
B28: SEQ ID NO 480 (designed binder)
chain: B1 chain with T21S, R23A, S25G, G46D, S48R, S49A
B29: SEQ ID NO 481 (designed binder)
chain: B19 chain with E23A, E28T, T30V, K50H, G51R, A52T, K53A, R54T, G55S
B30: SEQ ID NO 482 (designed binder)
chain: B2 chain with G23K, A24V, L25N, K45H, S47A, T49R, T50V
B31: SEQ ID NO 483 (designed binder)
chain: B16 chain with T51S, G52N, A53I, R54H, V55S, A83G
B32: SEQ ID NO 484 (designed binder)
chain: NVSPPRRARVTDATETTITISWAVPQSPIVSFQVDAVPANGQTPIHRTIDTGASGYTITGLQPGTDYKIYLYTLNDNARSSPVVIDAST

The chains behind the UniProt entries cited, without tags or fusion partners. Residues count along the entry.
UniProt P30530, residues 26-449: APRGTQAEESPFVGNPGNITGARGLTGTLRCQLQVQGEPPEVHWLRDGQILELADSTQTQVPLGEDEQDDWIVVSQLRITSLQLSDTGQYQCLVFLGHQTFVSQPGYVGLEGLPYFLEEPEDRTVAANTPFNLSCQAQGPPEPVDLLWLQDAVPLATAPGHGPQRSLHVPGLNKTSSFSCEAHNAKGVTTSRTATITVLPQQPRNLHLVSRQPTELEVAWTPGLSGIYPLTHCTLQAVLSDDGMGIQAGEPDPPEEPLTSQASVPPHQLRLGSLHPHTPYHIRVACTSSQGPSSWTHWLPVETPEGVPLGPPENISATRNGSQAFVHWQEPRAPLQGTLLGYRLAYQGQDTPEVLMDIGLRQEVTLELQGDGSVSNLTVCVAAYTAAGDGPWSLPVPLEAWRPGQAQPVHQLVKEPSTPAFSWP

Biological target: Axl (UniProt P30530)
Test: phage display selection

Binder	binding
B1	binds
B2	binds
B3	binds
B4	binds
B5	binds
B6	binds
B7	binds
B8	binds
B9	binds
B10	binds
B11	binds
B12	binds
B13	binds
B14	binds
B15	binds
B16	binds

Binder	binding
B17	binds
B18	binds
B19	binds
B20	binds
B21	binds
B22	binds
B23	binds
B24	binds
B25	binds
B26	binds
B27	binds
B28	binds
B29	binds
B30	binds
B31	binds
B32	binds

— patent US20110021746A1 (published 2011)
